Consider 109 sequences from the supplement of paper PMC3334620.

Whole data set: some 33,000 sequences, median “E-score (-0.5 to 0.5)” near -0.016, cut for the highest 2% near 0.3. The list shows a part of the results.

This test has as its target T1, Yer184c (UniProt P39961).
T1 sequence: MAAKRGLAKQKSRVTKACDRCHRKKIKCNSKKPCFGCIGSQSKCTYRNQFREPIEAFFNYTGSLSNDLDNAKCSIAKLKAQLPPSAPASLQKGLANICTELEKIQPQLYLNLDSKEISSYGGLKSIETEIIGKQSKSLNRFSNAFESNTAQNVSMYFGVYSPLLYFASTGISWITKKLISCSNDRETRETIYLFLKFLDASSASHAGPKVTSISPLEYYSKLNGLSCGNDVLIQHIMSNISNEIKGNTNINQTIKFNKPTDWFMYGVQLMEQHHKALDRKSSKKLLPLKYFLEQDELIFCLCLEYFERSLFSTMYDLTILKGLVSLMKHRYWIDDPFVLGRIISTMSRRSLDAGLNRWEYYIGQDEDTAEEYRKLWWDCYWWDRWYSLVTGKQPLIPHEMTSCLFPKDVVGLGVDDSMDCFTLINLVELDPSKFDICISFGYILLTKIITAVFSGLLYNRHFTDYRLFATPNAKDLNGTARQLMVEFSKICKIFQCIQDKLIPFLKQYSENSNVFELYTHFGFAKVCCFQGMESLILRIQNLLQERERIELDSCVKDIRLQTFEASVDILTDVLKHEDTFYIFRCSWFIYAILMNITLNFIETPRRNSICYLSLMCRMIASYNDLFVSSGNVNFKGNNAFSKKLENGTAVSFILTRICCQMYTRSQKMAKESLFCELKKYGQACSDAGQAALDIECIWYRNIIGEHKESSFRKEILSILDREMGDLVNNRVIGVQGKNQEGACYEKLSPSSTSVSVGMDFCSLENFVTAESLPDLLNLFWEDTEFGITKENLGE
Nature of the test: PBM E-score (8-mer binding enrichment) (E-score (-0.5 to 0.5)); higher = stronger / more preferred TF binding. The settings on record: protein concentration: 100 nM; construct: GST-full length. The method, boiled down: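 The E-score, a modified Wilcoxon-Mann-Whitney statistic, was computed by the Universal PBM Analysis Suite for every ungapped eight-base word pooled with its reverse complement. Scans behind it were normalised with masliner after bound GST-tagged yeast transcription factors were detected with fluorescent anti-GST. The proteins, at about 100-200 nM, had been applied to universal all-10-mer Agilent arrays made double-stranded by primer extension.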
With ATGCCTCC, the “PBM E-score” value was -0.228.
In the case of CCCTCAGA, the “PBM E-score” value is -0.323.
Regarding AATAGTCC, the “PBM E-score” value was -0.0591.
On to GAACCCCC, for which the “PBM E-score” value was -0.364.
In the case of AATTTCCT, the “PBM E-score” value is 0.114.
As for AGACTATA, the “PBM E-score” value came to 0.155.
As for CAGGATCC, the figure is -0.128; as for CACGGACG, 0.236; as for CGCTTGCC, -0.0496.
For the sequence TTAGAGAA, the “PBM E-score” value was -0.0611.
As for AGTAAACC, the “PBM E-score” value was -0.0783.
Regarding CAATTAAA, the “PBM E-score” value worked out at 0.0731.
As to CGACGTCA, the “PBM E-score” value is -0.015.
To AATATCCT belongs 0.0503; to CCGGTCAG, 0.0577.
For ATCCGGTC, the “PBM E-score” value is 0.214.
Consider GTCCATAA, for which the “PBM E-score” value is -0.116.
For GGGGCAAA, the “PBM E-score” value is -0.29.
As for GCCGAAGA, the figure is 0.315.
To GCCTAGCA belongs -0.128; to ACTGCAAC, -0.208.
Turning to CATCTAAA, the “PBM E-score” value is 0.123.
To GACATGTA belongs 0.0416; to AAATGCCT, 0.017; to ACGTCTTA, -0.153.
As for CACGCATA, the “PBM E-score” value was -0.217.
As for AGAATCTG, the figure is -0.0234; as for GCTAAAAA, 0.0777; as for CAGAGTAC, 0.0302.
For TAACTAAA, the “PBM E-score” value turned out to be 0.0945.
In the case of GACGGGCC, the “PBM E-score” value is -0.0717.
To CGCTGCCG belongs 0.159; to CCGCGGCC, 0.374; to AGCGTTTA, -0.115.
In the case of TGCCTAAA, the “PBM E-score” value was -0.1.
Take CAACGCTG: the “PBM E-score” value is -0.0457.
With ACTAGGTG, the “PBM E-score” value was -0.301.
As for GAAGTGAA, the figure is -0.0113; as for GTCCGCTA, 0.103; as for AGCGCCCA, -0.343.
With GCGCCGCA, the “PBM E-score” value was found to be 0.166.
As for ATTAGGTA, the “PBM E-score” value turned out to be 0.0954.
Consider GCGCATAA, for which the “PBM E-score” value is -0.123.
GCATAGGA: the “PBM E-score” value is -0.0473.
For the sequence ATCTTACC, the “PBM E-score” value amounted to 0.107.
To ATCTCCCA belongs -0.053; to CAGGCATA, -0.221; to GATAGCAC, -0.0951.
Consider GAAGCCGC, for which the “PBM E-score” value came to 0.177.
Turning to CGGAACAG, the “PBM E-score” value worked out at 0.338.
To TCCCACCA belongs -0.222.
For the sequence GACTGCTC, the “PBM E-score” value is -0.0916.
Turning to AAGTACGA, the “PBM E-score” value is 0.0484.
On to GGGACGGA, for which the “PBM E-score” value was -0.275.
On to AGTGCTCC, for which the “PBM E-score” value is -0.133.
To AACCGATT belongs 0.259; to CGAACCAC, -0.00215; to ATGTATCA, 0.0654.
For the sequence GAGTAATC, the “PBM E-score” value turned out to be 0.112.
As for AAAATGTT, the “PBM E-score” value is -0.123.
As for GTAAATCA, the figure is 0.144; as for GCTGGACC, -0.0272; as for AGAATCAG, 0.112.
As for CTGGGCTC, the “PBM E-score” value is -0.0716.
CAATGGAC: the “PBM E-score” value stood at 0.0146.
CTCGGGCC: the “PBM E-score” value was 0.101.
For the sequence ACTTAACT, the “PBM E-score” value was found to be 0.0856.
Turning to CGAGTCCA, the “PBM E-score” value was -0.217.
With CCCAGACC, the “PBM E-score” value was -0.252.
For the sequence GAGCGAAA, the “PBM E-score” value amounted to 0.203.
On to ATTTAGCG, for which the “PBM E-score” value turned out to be 0.0428.
ACCACAAC: the “PBM E-score” value came to 0.119.
To ACTGCATA belongs -0.0363; to GACTGCTA, -0.295.
To CCGCCCAG belongs -0.0712; to CACACTAA, 0.0117; to GACCGTGC, -0.0942.
As for GTGAGCGA, the figure is -0.156; as for AGGCTGAA, 0.0246.
For AAGGGTGA, the “PBM E-score” value is -0.165.
To CCGTCTCC belongs 0.118.
Turning to CAGGAGCG, the “PBM E-score” value is -0.0783.
Turning to ACTCGTAT, the “PBM E-score” value is -0.0263.
AGAGACCC: the “PBM E-score” value was -0.203.
With CACTTAGA, the “PBM E-score” value was 0.0454.
GTAACAGA: the “PBM E-score” value is 0.197.
For CGTTACAA, the “PBM E-score” value was found to be 0.0624.
For ATAACGAG, the “PBM E-score” value is -0.0105.
Take GGACTCAA: the “PBM E-score” value was -0.0284.
For GGAACGCA, the “PBM E-score” value was -0.0192.
Regarding CAAGCCCC, the “PBM E-score” value was -0.228.
Regarding GAGCGGCA, the “PBM E-score” value was 0.0139.
As for CAGTGACA, the “PBM E-score” value was -0.178.
On to ATATAAAT, for which the “PBM E-score” value was found to be 0.305.
Regarding ACTAGCTG, the “PBM E-score” value was -0.192.
With AACCCAAA, the “PBM E-score” value was 0.144.
For the sequence CCCGCGAC, the “PBM E-score” value was determined as 0.0681.
For AGTTAGCG, the “PBM E-score” value is 0.0216.
For AAAGTGTA, the “PBM E-score” value is -0.178.
To TTGAACAA belongs 0.0668; to TCGCTTAA, 0.00488; to AGACCGTA, -0.107.
On to CCCGGCAG, for which the “PBM E-score” value is 0.131.
As for CAAGGATC, the figure is 0.0621.
Regarding ACTAGATC, the “PBM E-score” value is -0.0999.
To ATGCGTGG belongs -0.302.
Consider ATCCGTGA, for which the “PBM E-score” value is 0.194.
Consider ATCTAAGG, for which the “PBM E-score” value is -0.165.
For the sequence ACCTAACG, the “PBM E-score” value was -0.165.
